# Among all 340,000 compounds or so, about 170 (0.05%) were called active. Inconclusive results, whose numbers are uncertain, are shown with a selection of clear calls. The call rests on the fitted dose curve; in most records, active means well fitted inhibition curve with a large enough effect in the signal ratio, with a control signal flat (not every such curve was filed as active); inconclusive means small, poorly fitted or top-dose-only effect, or effect the other way, or a change in a side signal; inactive means flat fitted curve, though single readings scatter; the % refers to the signal ratio. Potencies of inconclusive entries are doubtful fits and often do not repeat.
# Assay: qHTS Assay to Find Inhibitors of Chronic Active B-Cell Receptor Signaling;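 on activity change, negative = inhibition: plate controls were basal doxycycline-induced cells for no effect and cells given 10 µM MG132 for full effect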
# Details: ABC-DLBCL IkBa-CBG/CBR reporter, luminescence ratio (green luciferase fused to IkBa over red control in TMD8 lymphoma cells), 4 h; activity change, negative = inhibition: at 46.1 µM (top of the series)
# Procedure, shortened: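 Compounds up to 46 uM were incubated four hours with TMD8 cells whose green CBG68 luciferase is fused to IkappaBalpha; red CBR luminescence normalised the signal, and concentration-effect curves were fitted to fusion, red and ratio data.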
# Potency means the concentration at half of the fitted maximal effect.
SMILES,Potency,"activity change, negative = inhibition"
CCC(=O)Nc1ccc(Cl)c(NC(=O)c2c(OC)cccc2OC)c1,"inconclusive: 15.8 µM [falling, single point]",
CN(C)c1ccc(C(=O)OCC(=O)N2CCCC2)cc1,"inconclusive: 14.1 µM [falling, partial curve, poor fit]",
CCC1CN(C(=O)N2CCC(C(=O)NCc3ccc(C)o3)CC2)c2cc(C)ccc2O1 (configuration not stated),,inactive: 2.84%
CCCn1c(=O)c(C(=O)Nc2ncccc2O)c(O)c2ccccc21,,inactive: 6.6%
O=C(CCNc1cccc(Cl)c1)c1cccs1,,inactive: 8.16%
CCOc1ccc(C(=O)CCc2nc3ccccc3s2)cc1,"inconclusive: 5.62 µM [rising, partial curve]",
CCN(CC)S(=O)(=O)c1ccc(N2CCOCC2)c(NC(=O)CC(C)(C)C)c1,,inactive: -7.01%
COc1ccc(-c2nnc(-c3cccs3)o2)cc1OC,"inconclusive: 29.1 µM [falling, single point]",
COc1cc2nc(CN(C)Cc3ccc(SC)cc3)[nH]c(=O)c2cc1OC,,inactive: 2.82%
Cc1cc(C)n(Cc2cccc(C(=O)N/N=C/c3cccnc3)c2)n1,,inconclusive: -8.31%
CC(NC(=O)Nc1ccccc1)C(c1cccs1)N1CCN(C)CC1 (configuration not stated),,inactive: 8.64%
Cc1ccc(C)c(/C=N/NC(=S)NC(C)C)c1,,inconclusive: -9.17%
CC1(C)CC(=O)C2=C(C1)Nc1ccccc1NC2c1cccs1 (configuration not stated),,inconclusive: 6.68%
CC(NC(=O)CCC(=O)c1ccccc1)c1ccc(F)cc1 (configuration not stated),,inconclusive: -0.969%
COc1cccc(/C=N/NC(=S)Nc2cccc(S(=O)(=O)N(C)C)c2)c1,"inconclusive: 3.16 µM [cytotoxic, full curve]",
Cn1cc([N+](=O)[O-])c(C(=O)Nc2ccc(-c3nc4ccccc4o3)cc2)n1,,inactive: 2.58%
CCN(CC(=O)N1CCN(Cc2ccccc2)CC1)S(=O)(=O)c1ccc(C)cc1,,inactive: 0.952%
O=C(CCCCCN1C(=O)[C@@H]2Cc3ccccc3CN2C1=O)Nc1cccc(F)c1,"inconclusive: 35.5 µM [falling, partial curve, poor fit]",
CC1(c2ccc(Cl)cc2)NC(=S)N2C1NC(=S)N2c1ccccc1 (configuration not stated),,inconclusive: -11.7%
Cc1ccc(C(=O)NCC(=O)OCC(=O)c2ccc3c(c2)OCCO3)cc1C,,inactive: -20.2%
Cc1ccc(N2Cc3ccccc3C2=S)cc1,,inconclusive: 16.4%

SMILES,Potency,"activity change, negative = inhibition"
CN(C)CCCNS(=O)(=O)c1ccc(Oc2ncc(C(F)(F)F)cc2Cl)cc1,"inconclusive: 20.6 µM [falling, single point]",
CC(=O)OCC1OC(OC2C[C@]3(C)C(CC(O)C4C([C@](C)(CCC=C(C)C)OC5OC(CO)C(O)C(O)C5O)CC[C@]43C)[C@@]3(C)CCC(O)C(C)(C)C23)C(O[C@@H]2OC(C)C(O)C(O)C2O)C(O)C1O (some centres not stated),,inactive: -3.01%
COc1cc(/C=N\Nc2nncn2N)ccc1OC(C)=O,"inconclusive: 17.8 µM [falling, partial curve, poor fit]",
COc1ccc(/C=C/CN2CCCC(C(=O)c3ccc(OC)c(F)c3)C2)cc1 (configuration not stated),,inactive: 2.11%
O=C(CNC(=O)c1cccs1)N/N=C/c1c[nH]c2ccccc12,,inconclusive: -15.6%
CC(NC(=O)/C(C#N)=C/c1ccc(N2CCOCC2)cc1)c1ccccc1 (configuration not stated),,inconclusive: -23.9%
COc1ccc(Nc2nc(N3CCOCC3)nc(N3CCOCC3)n2)cc1,,inactive: -7.88%
CCn1c(=O)c(C(=O)CN2CC(C)OC(C)C2)c(N)n(Cc2ccccc2)c1=O (configuration not stated),,inconclusive: -1.55%
Cc1ccc2nc(Nc3ccc(F)cc3)c3nncn3c2c1,,inconclusive: 9.58%
O=C(COc1ccc(Br)cc1Cl)c1ccc[nH]1,"inconclusive: 15.8 µM [falling, single point]",
CC(=O)N1CCN(Cc2nc3scc(-c4ccccc4)c3c(=O)[nH]2)CC1,,inactive: -3.36%
CC(/C=C/c1ccco1)=N\NC(=O)COc1ccc(C)c(C)c1,,inactive: -11.3%
CS(=O)(=O)/C(C#N)=C\c1cnc(S(=O)(=O)c2ccccc2)s1,,inconclusive: 7.48%
CCCCNC(=O)CSc1nc2ccc(Nc3nc(N4CCOCC4)nc(N4CCOCC4)n3)cc2s1,"inconclusive: 1.78 µM [falling, partial curve, poor fit]",
CCOC(=O)Cc1c(C)nc(N)[nH]c1=O,"inconclusive: 6.31 µM [falling, partial curve, poor fit]",
Cc1c(C)c2ccc(OCC(=O)N[C@@H](Cc3ccccc3)C(=O)O)cc2oc1=O,,inactive: 14.3%
C=CCNC(=S)NNC(=O)COc1ccc2cc(Br)ccc2c1,"inconclusive: 17.8 µM [cytotoxic, single point]",
O=C(NC1CC(=O)N(c2ccc(F)cc2)C1)c1cc2ccccc2o1 (configuration not stated),,inconclusive: 17.6%
O=C(Nc1cccc(C(F)(F)F)c1)Oc1ccc(Cl)c2cccnc12,"inconclusive: 7.94 µM [falling, partial curve, poor fit]",
O=C(Nc1ccccc1F)c1ccncc1,"inconclusive: 29.1 µM [falling, single point]",
CNc1nc(-c2ccc3c(c2)CCN3C(=O)c2ccccc2F)cs1,"inconclusive: 15.8 µM [falling, single point]",

# Already shown: entries from further up.
SMILES,Potency,"activity change, negative = inhibition"
COc1ccc(/C=C/CN2CCCC(C(=O)c3ccc(OC)c(F)c3)C2)cc1 (configuration not stated),,inactive: 2.11%
O=C(CNC(=O)c1cccs1)N/N=C/c1c[nH]c2ccccc12,,inconclusive: -15.6%
CC(NC(=O)/C(C#N)=C/c1ccc(N2CCOCC2)cc1)c1ccccc1 (configuration not stated),,inconclusive: -23.9%
COc1ccc(Nc2nc(N3CCOCC3)nc(N3CCOCC3)n2)cc1,,inactive: -7.88%
CCn1c(=O)c(C(=O)CN2CC(C)OC(C)C2)c(N)n(Cc2ccccc2)c1=O (configuration not stated),,inconclusive: -1.55%
Cc1ccc2nc(Nc3ccc(F)cc3)c3nncn3c2c1,,inconclusive: 9.58%

# Continuation.

SMILES,Potency,"activity change, negative = inhibition"
CCOC(=O)C1CCN(C(=O)c2sc3nc(-c4ccccc4)cn3c2C)CC1,,inconclusive: -22.1%
Cc1ccn2cc(-c3ccc(Br)cc3)nc2c1,"inconclusive: 20 µM [falling, partial curve]",
Cc1nc2c(C(=O)NCc3ccccc3Cl)cnn2c(C)c1Cc1c(F)cccc1Cl,,inconclusive: 2.49%
CCN(c1ccc(OC)cc1)S(=O)(=O)c1cc(-c2cc(C)no2)ccc1OC,,inactive: 0.0141%
CCc1ccc(C(=O)COC(=O)c2ccco2)cc1,,inconclusive: 11.8%
COc1ccccc1OCC(O)Cn1c(Br)nc2c1c(=O)[nH]c(=O)n2C (configuration not stated),,inactive: 0.211%
O=C1c2ccccc2C(=O)N1OCCOCCOCCBr,,inconclusive: 9.02%
CCOC(=O)N1CCN(C(=O)COC(=O)CSc2ccc([N+](=O)[O-])cc2)CC1,,inactive: -0.147%
CCCCOc1ccc(C(=O)NCCc2cccs2)cc1,,inconclusive: 5.1%
COc1ccc(CNCC(O)(c2ccccc2)c2ccc(F)cc2)cc1 (configuration not stated),,inconclusive: -10.6%
C#CCn1c(-c2cccs2)nc2ccccc21,"inconclusive: 11.2 µM [rising, partial curve, poor fit]",
COc1ccc(NC(=O)c2ccccc2NS(=O)(=O)c2ccc(CNC(C)=O)cc2)c(OC)c1,,inactive: -28.5%
Clc1ccc(-c2nnc(-c3ccc(Br)cc3)c(N3CCSCC3)n2)cc1,"inconclusive: 31.6 µM [rising, single point]",
Cc1c(C(=O)NCCSCc2c(F)cccc2Cl)cnn1-c1ccc(Cl)cc1,,inactive: 28%
Cc1cccc(NC(=O)CNC(=O)Cn2ncc(Cl)c(Cl)c2=O)c1C,,inconclusive: -0.692%
CCCCCn1c(NC2CCCCC2)nc2c1c(=O)[nH]c(=O)n2C,,inconclusive: -1.68%
N/C(=N\OC(=O)C(c1ccccc1)c1ccccc1)c1ccccn1,,inconclusive: 17.3%
O=c1[nH]c(-c2ccccn2)nc(C(F)(F)F)c1Br,"inconclusive: 35.5 µM [falling, single point]",
O=C(COC(=O)Cc1ccccc1F)Nc1cccc(S(=O)(=O)NC2=NCCCCC2)c1,,inconclusive: 5.94%
O=C1Nc2c(ccc(Cl)c2Cl)C(=O)C1(F)c1ccccc1 (configuration not stated),,inconclusive: 9.52%
CN(C)c1ccc(/C=N/NC(=O)CN(c2ccccc2Cl)S(C)(=O)=O)cc1Br,"inconclusive: 5.01 µM [falling, partial curve, poor fit]",

SMILES,Potency,"activity change, negative = inhibition"
O=C(Nc1cccc(-c2csc(Nc3ccccc3)n2)c1)c1cc([N+](=O)[O-])cc(C(F)(F)F)c1,,inconclusive: 20.5%
CCSc1nnc(NC(=O)c2ccc(C)cc2)s1,"inconclusive: 18.4 µM [falling, partial curve]",
Cc1ccccc1NC(=S)N(CCN(C)C)C(C)c1ccccn1 (configuration not stated),,inactive: -1.02%
CCC(CC)C(=O)Nc1ccc(C)c(O)c1,,inconclusive: 0.348%
CC(=O)Oc1ccccc1C(=O)NC(C)CCc1ccccc1 (configuration not stated),,inconclusive: -1.54%
COc1cc(-c2noc(C)c2-c2ccc(N(C)C)nc2)cc(OC)c1OC,"inconclusive: 0.112 µM [falling, full curve, poor fit]",
COc1ccccc1N(CC(=O)N(CC(C)C)CC(C)C)S(=O)(=O)c1cccs1,,inconclusive: 3.59%
CCOC(=O)c1cnc(SC)nc1N,,inactive: 0.86%
Cc1ccsc1C(=O)OCC(=O)NCc1ccc2c(c1)OCO2,,inconclusive: 6.13%
Cc1nc(SCC(=O)N2CCN(c3ccccc3)CC2)c2oc3ccccc3c2n1,,inconclusive: 3.43%
CCCc1c(C)nc(N2CCN(c3ccc(F)cc3)CC2)[nH]c1=O,,inactive: 1.74%
COc1cccc2c1OCC(C(=O)OCc1cccnc1)=C2,,inconclusive: -0.858%
COc1cc(/C=N/Nc2ccccc2[N+](=O)[O-])cc(OC)c1O,,inconclusive: -4.61%
O=C(NCc1n[nH]c(=S)n1Cc1ccccc1)c1ccc(Cl)cc1Cl,,inactive: -2.36%
Cc1ccc(NC(=O)CC(O)(C(F)(F)F)C(F)(F)F)cc1,"inconclusive: 1.84 µM [rising, partial curve, poor fit]",
O=C(COc1ncnc2sccc12)N1CCN(S(=O)(=O)c2ccc(Cl)cc2)CC1,,inconclusive: -0.859%
CSc1cccc(NC(=O)C(C)Sc2ccc(C)cc2)c1 (configuration not stated),,inconclusive: 1.4%
CCCCNC(=S)N/N=C/c1ccc(C)s1,,inactive: -6.04%
C=CCc1c(C)nc2c(OC)cccc2c1Cl,,inconclusive: 0.117%
